This passage reports binding results from publication doi:10.1101/2021.08.31.458340.

Protein sequences, listed by entry. Tags and fused reporters are not part of them.
UniProt Q8N8S7, whole entry: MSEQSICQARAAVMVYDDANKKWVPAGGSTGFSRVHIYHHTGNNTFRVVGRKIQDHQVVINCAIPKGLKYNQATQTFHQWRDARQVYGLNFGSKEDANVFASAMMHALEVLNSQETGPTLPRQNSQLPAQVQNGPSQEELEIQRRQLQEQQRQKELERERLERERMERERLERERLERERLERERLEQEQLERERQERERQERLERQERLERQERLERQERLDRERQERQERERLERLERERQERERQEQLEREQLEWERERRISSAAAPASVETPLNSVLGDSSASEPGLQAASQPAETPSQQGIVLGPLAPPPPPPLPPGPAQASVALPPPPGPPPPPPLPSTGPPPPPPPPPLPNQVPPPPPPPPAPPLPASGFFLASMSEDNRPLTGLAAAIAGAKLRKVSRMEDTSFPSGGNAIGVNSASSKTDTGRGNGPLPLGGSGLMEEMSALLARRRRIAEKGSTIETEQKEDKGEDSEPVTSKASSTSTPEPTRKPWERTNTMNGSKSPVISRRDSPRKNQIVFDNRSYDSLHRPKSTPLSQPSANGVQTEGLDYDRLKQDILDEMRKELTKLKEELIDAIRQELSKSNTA

For this test, the target named is nesprin-2 (encoded by SYNE2) (human (endogenous in Met4)) (UniProt Q8WXH0). The test is described as follows: co-IP.

These are yes or no findings as the source states them, for the method shown. In cells and extracts the contact can be indirect. Some entries that bind do so weakly or less than the wild type.

“Mena (human Enabled homologue, encoded by ENAH) (from UniProt Q8N8S7 1-591)”: the binding entry is “binds”.
